Source: US11858935B1, “Pyrrolo[2,3-c][1,7]naphthyridine-2-carboxylic acid compounds as CK2 inhibitors” (KING FAISAL UNIVERSITY, priority 2023, dated 2024)
pIC50: −log10 of the molar value.

Legend:
Type in all cases: cell-based
HCT116 (colon) = experiment: In vitro cytotoxic activity (MTT) assay, HCT116; conditions: Homo sapiens, HCT-116; HCT116 (colon) cells, exposed 96 hours; read-out: IC50, concentration eliciting 50% inhibition of cell proliferation
Experimental: (§1) Compounds 1-16 were screened for their in vitro cytotoxic activity utilizing a 3-(4,5-dimethyl-thiazol-2-yl)-2,5-diphenyltetrazolium bromide (MTT) assay against selected cancer human cell lines consisting of PC3 (prostate), HCT116 (colon), A375 (melanoma), H1299 (lung), MIAPaCa-2 (pancreas), HL60 (leukemia), MCF7 (breast), MDA-MB-231 (breast) (T. Mosmann, J. Immunol. Meth., 1983, 65, 55-63). The cells were cultured at 37° C. in RMPI1640 medium supplemented with 10% fetal bovine serum, 50 IU/mL penicillin, and 50 μg/mL streptomycin in a 5% CO2 incubator. All cells were sub-cultured 3 times/week by trypsinisation. Viable cells were seeded and allowed to adhere for 12 h before a test drug was added in 96-well plates at an initial density of 1.0×10^5 cells/mL. Tumor cell lines were separately exposed to various concentrations of the tested compounds followed by incubation at a temperature of 37° C. during 96 h inside a medium of fresh RMPI 1640. Cells were subsequently incubated at 37° C. using MTT at 0.5 mg/mL during 4 h. After removal of supernatant, formazan crystals were dissolved in isopropanol and the optical density was measured at 570 nm. CX-4945 was used as a positive control.

MIAPaCa-2 (pancreas) = experiment: In vitro cytotoxic activity (MTT) assay, MIAPaCa-2; conditions: Homo sapiens, MIA PaCa-2; MIAPaCa-2 (pancreas) cells, exposed 96 hours; read-out: IC50, concentration eliciting 50% inhibition of cell proliferation
Experimental: as §1

MCF7 (breast) = experiment: In vitro cytotoxic activity (MTT) assay, MCF7; conditions: Homo sapiens; MCF7 (breast) cells, exposed 96 hours; read-out: IC50, concentration eliciting 50% inhibition of cell proliferation
Experimental: as §1

H1299 (lung) = experiment: In vitro cytotoxic activity (MTT) assay, H1299; conditions: Homo sapiens, NCI-H1299; H1299 (lung) cells, exposed 96 hours; read-out: IC50, concentration eliciting 50% inhibition of cell proliferation
Experimental: as §1

HL60 (leukemia) = experiment: In vitro cytotoxic activity (MTT) assay, HL60; conditions: Homo sapiens, HL-60; HL60 (leukemia) cells, exposed 96 hours; read-out: IC50, concentration eliciting 50% inhibition of cell proliferation
Experimental: as §1

MDA-MB-231 (breast) = experiment: In vitro cytotoxic activity (MTT) assay, MDA-MB-231; conditions: Homo sapiens; MDA-MB-231 (breast) cells, exposed 96 hours; read-out: IC50, concentration eliciting 50% inhibition of cell proliferation
Experimental: as §1

A375 (melanoma) = experiment: In vitro cytotoxic activity (MTT) assay, A375; conditions: Homo sapiens, A-375; A375 (melanoma) cells, exposed 96 hours; read-out: IC50, concentration eliciting 50% inhibition of cell proliferation
Experimental: as §1

PC3 (prostate) = experiment: In vitro cytotoxic activity (MTT) assay, PC3; conditions: Homo sapiens, Prostate cell; PC3 (prostate) cells, exposed 96 hours; read-out: IC50, concentration eliciting 50% inhibition of cell proliferation
Experimental: as §1

For `O=C(O)c1ccc2c(c1)nc(Nc1cccc(Cl)c1)c1ccncc12` [CX-4945, reference compound], the pIC50 (HCT116 (colon)) was 5.64, the pIC50 (MIAPaCa-2 (pancreas)) was 6.00 and the pIC50 (MCF7 (breast)) was 5.04. It also gave a pIC50 (H1299 (lung)) of 5.64, a pIC50 (HL60 (leukemia)) of 5.43 and a pIC50 (MDA-MB-231 (breast)) of 5.21. It also gave a pIC50 (A375 (melanoma)) of 5.39 and a pIC50 (PC3 (prostate)) of 5.70.
